In publication PMC3917433:
These are yes or no findings as the source states them, for the method shown. Binding can be weak; no strength is given.

Protein sequences, listed by entry. Tags and fused reporters are not part of them. Lines headed by an entry give the natural chain unless they say otherwise; changes in a name come on top.
UniProt P22607: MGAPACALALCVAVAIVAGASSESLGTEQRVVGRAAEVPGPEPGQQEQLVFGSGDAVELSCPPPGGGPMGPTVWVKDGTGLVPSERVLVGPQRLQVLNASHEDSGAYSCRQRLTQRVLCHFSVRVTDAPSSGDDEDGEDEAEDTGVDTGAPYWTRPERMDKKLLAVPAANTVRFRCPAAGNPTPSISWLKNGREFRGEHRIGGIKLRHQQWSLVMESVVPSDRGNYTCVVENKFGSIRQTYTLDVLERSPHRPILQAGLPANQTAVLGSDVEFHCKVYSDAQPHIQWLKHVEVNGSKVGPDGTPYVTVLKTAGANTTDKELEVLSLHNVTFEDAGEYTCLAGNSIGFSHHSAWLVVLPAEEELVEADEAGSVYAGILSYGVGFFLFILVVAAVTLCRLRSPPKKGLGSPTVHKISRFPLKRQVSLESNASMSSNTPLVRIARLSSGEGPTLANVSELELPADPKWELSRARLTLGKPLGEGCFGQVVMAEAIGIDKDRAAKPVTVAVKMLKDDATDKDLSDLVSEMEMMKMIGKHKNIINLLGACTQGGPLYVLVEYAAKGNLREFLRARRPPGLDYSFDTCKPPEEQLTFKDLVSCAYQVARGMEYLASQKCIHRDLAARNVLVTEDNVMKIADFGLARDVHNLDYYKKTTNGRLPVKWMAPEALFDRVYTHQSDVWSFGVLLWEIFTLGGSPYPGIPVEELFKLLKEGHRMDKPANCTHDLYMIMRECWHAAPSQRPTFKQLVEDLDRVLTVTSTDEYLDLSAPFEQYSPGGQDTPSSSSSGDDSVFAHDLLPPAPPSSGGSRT
UniProt P08253: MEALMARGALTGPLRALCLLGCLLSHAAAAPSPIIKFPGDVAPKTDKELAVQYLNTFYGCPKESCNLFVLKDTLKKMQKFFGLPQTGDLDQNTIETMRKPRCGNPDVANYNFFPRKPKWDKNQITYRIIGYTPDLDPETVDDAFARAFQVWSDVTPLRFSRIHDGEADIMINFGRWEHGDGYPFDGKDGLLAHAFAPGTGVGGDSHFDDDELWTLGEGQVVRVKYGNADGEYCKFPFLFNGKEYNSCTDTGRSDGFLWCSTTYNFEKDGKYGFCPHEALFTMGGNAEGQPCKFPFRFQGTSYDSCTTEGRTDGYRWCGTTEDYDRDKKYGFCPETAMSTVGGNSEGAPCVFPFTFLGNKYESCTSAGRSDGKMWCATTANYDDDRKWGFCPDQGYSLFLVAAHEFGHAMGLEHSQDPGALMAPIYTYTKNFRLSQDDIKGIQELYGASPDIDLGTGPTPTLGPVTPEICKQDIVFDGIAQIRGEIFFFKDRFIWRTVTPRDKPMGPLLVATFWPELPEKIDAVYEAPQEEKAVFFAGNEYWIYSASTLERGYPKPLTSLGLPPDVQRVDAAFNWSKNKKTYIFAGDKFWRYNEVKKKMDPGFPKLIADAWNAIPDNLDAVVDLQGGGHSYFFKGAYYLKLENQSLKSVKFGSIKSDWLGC
UniProt Q96MS0: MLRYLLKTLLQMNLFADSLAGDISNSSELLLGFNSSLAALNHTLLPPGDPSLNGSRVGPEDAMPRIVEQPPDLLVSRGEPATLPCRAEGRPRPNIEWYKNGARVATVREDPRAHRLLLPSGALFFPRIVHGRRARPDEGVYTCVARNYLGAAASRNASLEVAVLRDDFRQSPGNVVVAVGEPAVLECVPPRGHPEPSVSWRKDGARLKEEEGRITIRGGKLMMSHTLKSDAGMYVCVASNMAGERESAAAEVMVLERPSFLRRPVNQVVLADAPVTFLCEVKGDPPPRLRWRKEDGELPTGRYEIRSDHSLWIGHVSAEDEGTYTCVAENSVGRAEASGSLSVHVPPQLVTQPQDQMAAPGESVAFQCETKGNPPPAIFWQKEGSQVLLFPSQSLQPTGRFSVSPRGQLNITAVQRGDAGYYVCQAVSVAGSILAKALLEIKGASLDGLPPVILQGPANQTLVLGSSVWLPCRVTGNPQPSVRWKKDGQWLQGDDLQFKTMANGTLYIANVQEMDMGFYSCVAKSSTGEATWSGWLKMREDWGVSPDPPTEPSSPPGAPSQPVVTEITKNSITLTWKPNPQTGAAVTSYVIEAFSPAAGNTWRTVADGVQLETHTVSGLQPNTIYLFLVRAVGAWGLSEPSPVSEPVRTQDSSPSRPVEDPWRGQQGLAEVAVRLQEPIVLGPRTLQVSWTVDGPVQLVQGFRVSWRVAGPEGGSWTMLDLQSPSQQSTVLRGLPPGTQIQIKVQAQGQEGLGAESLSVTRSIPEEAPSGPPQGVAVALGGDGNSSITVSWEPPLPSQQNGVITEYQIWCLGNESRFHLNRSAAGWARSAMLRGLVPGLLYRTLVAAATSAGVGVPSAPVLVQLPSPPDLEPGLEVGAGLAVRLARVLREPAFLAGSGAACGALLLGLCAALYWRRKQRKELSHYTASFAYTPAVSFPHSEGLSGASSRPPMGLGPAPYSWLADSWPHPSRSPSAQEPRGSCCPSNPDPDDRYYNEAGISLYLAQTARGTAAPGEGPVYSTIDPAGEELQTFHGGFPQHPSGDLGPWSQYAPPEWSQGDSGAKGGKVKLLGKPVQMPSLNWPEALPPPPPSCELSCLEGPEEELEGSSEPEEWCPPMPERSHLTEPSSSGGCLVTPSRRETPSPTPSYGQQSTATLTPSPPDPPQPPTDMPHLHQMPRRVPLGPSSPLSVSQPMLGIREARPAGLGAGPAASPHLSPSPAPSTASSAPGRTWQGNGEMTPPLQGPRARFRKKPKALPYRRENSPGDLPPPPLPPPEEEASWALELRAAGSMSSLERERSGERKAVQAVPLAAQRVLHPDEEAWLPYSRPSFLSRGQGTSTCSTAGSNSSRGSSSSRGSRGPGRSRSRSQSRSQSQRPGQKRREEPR
UniProt P21860: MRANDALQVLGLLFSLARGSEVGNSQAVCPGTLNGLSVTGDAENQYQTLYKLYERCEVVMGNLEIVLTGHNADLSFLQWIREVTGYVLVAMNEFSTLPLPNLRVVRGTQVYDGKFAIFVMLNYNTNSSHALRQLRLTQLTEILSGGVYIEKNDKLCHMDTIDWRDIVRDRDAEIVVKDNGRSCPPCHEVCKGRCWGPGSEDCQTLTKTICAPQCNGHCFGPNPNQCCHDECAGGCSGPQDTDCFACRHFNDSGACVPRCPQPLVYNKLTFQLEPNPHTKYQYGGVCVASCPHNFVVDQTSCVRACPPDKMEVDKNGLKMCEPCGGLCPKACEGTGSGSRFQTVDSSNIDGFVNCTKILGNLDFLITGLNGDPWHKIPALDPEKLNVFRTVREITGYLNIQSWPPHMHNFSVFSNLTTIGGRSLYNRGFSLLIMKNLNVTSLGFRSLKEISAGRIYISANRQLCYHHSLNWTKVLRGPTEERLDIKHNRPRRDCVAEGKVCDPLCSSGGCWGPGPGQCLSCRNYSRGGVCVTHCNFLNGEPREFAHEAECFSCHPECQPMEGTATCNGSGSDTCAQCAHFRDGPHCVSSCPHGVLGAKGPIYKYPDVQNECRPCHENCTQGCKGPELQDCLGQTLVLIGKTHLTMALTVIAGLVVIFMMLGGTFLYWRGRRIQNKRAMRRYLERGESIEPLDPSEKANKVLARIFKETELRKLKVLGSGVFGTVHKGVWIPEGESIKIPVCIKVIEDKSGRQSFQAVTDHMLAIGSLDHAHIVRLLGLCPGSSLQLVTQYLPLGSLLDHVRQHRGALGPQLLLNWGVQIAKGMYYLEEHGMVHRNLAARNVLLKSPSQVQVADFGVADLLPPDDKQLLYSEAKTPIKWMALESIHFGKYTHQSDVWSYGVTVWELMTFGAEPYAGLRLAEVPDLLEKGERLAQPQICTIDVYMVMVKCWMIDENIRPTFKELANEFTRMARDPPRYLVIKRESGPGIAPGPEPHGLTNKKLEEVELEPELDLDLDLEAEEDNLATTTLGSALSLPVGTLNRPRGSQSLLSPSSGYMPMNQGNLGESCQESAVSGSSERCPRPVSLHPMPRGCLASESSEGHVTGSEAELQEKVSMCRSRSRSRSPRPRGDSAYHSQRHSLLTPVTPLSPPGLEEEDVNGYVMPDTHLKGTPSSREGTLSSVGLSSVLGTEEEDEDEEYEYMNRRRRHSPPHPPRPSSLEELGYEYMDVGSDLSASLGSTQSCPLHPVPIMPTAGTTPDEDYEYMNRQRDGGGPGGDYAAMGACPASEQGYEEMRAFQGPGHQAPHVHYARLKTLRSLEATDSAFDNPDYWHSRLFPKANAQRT
UniProt P13202: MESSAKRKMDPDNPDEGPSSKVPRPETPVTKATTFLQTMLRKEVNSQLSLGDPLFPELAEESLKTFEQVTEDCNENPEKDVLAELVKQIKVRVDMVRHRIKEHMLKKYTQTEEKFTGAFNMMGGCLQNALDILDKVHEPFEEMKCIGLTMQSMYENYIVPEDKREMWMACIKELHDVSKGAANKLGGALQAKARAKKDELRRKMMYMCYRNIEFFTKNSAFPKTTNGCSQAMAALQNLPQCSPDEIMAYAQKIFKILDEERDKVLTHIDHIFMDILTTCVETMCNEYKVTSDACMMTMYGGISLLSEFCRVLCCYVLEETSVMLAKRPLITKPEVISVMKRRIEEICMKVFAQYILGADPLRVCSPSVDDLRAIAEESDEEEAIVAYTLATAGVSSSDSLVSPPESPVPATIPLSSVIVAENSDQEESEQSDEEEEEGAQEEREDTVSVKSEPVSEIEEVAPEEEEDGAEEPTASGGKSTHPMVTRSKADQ

What was measured:
Test in all cases: peptide or protein array; only the binder purified
[1] = target: Fibroblast growth factor receptor 3 isoform 1 precursor (human) (UniProt P22607)
[2] = target: matrix metallopeptidase 2 (MMP2) (human) (UniProt P08253)
[3] = target: Roundabout-like protein 3 (ROBO3) (human) (UniProt Q96MS0)
[4] = target: V-erb-b2 erythroblastic leukemia viral oncogene homolog 3 (ERBB3) (human) (UniProt P21860)

Measured: binding

Human cytomegalovirus immediate-early protein 1 (from UniProt P13202 1-491)
binds: [1] | [2] | [3] | [4]
